Values from PubChem BioAssay AID1259405 (NCATS, 2018).
The whole screen tested about 50,000 reagents; shown is a random part of them. In the full data, about 4,000 (8%) were called active. 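Mouse siRNA library applied to hamster cells; one well for each siRNA.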 Entries without a mark were called inactive. The numbers tell different reagents against one gene apart. No sequences are given here.

Aim: 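Knock-downs that lift recombinant protein yield in hamster ovary cells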 (primary screen)
Cells: Chinese hamster CHO-K1 ovary cells with stable secreted eGFP expression
Reagent: single siRNA against mouse genes, 0.8 pmol siRNA per well (2 µl of 400 nM stock)
Timing: 3 days
Measured: 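Per-well intracellular GFP measured by laser scanning cytometry, plus viability from ATP luminescence, each relative to plate median of non-targeting control wells, in %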
Direction: GFP, % of control: higher = more GFP per well, higher productivity; viability (ATP), % of control: higher = more viable cells (more ATP)
Hit rule: 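a knock-down is called active if GFP reaches 120% or more of non-targeting control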

Socs6 #1 scored GFP, % of control 91.8; viability (ATP), % of control 94.8. Socs6 #2 showed GFP, % of control 52.6; viability (ATP), % of control 69.1. Against Socs6 #3, the values are GFP, % of control 63; viability (ATP), % of control 82.7. Depletion of Mcts2 #1 gave: GFP, % of control 43.9; viability (ATP), % of control 40.7. Knock-down of Mcts2 #2 resulted in: GFP, % of control 148 (active); viability (ATP), % of control 107. Mcts2 #3 gave GFP, % of control 88.7; viability (ATP), % of control 91.3.

Against Ssb #1, the entry reads GFP, % of control 93.6; viability (ATP), % of control 124. Depletion of Ssb #2 gave: GFP, % of control 79.6; viability (ATP), % of control 89.8. After knock-down of Cmtr1 #1, the record shows GFP, % of control 91.5; viability (ATP), % of control 82.2. Depletion of Cmtr1 #2 came out at: GFP, % of control 79.3; viability (ATP), % of control 86.6. With knock-down of Cmtr1 #3, the screen gave GFP, % of control 81.9; viability (ATP), % of control 42.5. With knock-down of Dcaf15 #1, the record shows GFP, % of control 52.1; viability (ATP), % of control 52.7.

With knock-down of Dcaf15 #2, the record shows GFP, % of control 73.4; viability (ATP), % of control 78.8. Silencing of Dcaf15 #3 gave: GFP, % of control 85.9; viability (ATP), % of control 92.4. After knock-down of Prss12 #1, the screen gave GFP, % of control 160 (active); viability (ATP), % of control 65.5. For Prss12 #2, the entry reads GFP, % of control 78.6; viability (ATP), % of control 59.2. For Prss12 #3 the deposit lists GFP, % of control 103; viability (ATP), % of control 57.7.

Records listed so far with an active call (2):
Mcts2 #2 → GFP, % of control: 148 (active); viability (ATP), % of control: 107
Prss12 #1 → GFP, % of control: 160 (active); viability (ATP), % of control: 65.5

Next reagents:
For Ciapin1 #1, the values are GFP, % of control 86.9; viability (ATP), % of control 85. Ciapin1 #2 gave GFP, % of control 86.6; viability (ATP), % of control 67.1. Ciapin1 #3 gave GFP, % of control 102; viability (ATP), % of control 97.9. Plekhg3 #1 showed GFP, % of control 97.9; viability (ATP), % of control 81.5. Silencing of Plekhg3 #2 gave: GFP, % of control 91.2; viability (ATP), % of control 102. Knock-down of Plekhg3 #3 gave: GFP, % of control 165 (active); viability (ATP), % of control 160.

Depletion of Hcar1 #1 came out at: GFP, % of control 132 (active); viability (ATP), % of control 62.3. Hcar1 #2 scored GFP, % of control 67; viability (ATP), % of control 59.1. With knock-down of Hcar1 #3 the results were GFP, % of control 101; viability (ATP), % of control 61.3. For Zfp316 #1, the values are GFP, % of control 43.3; viability (ATP), % of control 41.4. Silencing of Zfp316 #2 came out at: GFP, % of control 71.9; viability (ATP), % of control 77.6. With knock-down of Zfp316 #3, the record shows GFP, % of control 65.5; viability (ATP), % of control 74.7.

Tm4sf20 #1 scored GFP, % of control 65.6; viability (ATP), % of control 67.8. Depletion of Tm4sf20 #2 came out at: GFP, % of control 51.5; viability (ATP), % of control 69.3. Tm4sf20 #3 showed GFP, % of control 65.2; viability (ATP), % of control 82.9. Knock-down of Prss58 #1 resulted in: GFP, % of control 73.5; viability (ATP), % of control 93.9. With knock-down of Prss58 #2, the screen gave GFP, % of control 51.4; viability (ATP), % of control 57.5. Prss58 #3 scored GFP, % of control 84.8; viability (ATP), % of control 99.1.

Slc6a15 #1 showed GFP, % of control 73.5; viability (ATP), % of control 34.9. Depletion of Slc6a15 #2 resulted in: GFP, % of control 55.1; viability (ATP), % of control 54.8. Slc6a15 #3 gave GFP, % of control 75.3; viability (ATP), % of control 78.4. With knock-down of Ezh2 #1, the record shows GFP, % of control 64.5; viability (ATP), % of control 69.5. Against Ezh2 #2, the entry reads GFP, % of control 74.3; viability (ATP), % of control 80. Ezh2 #3 scored GFP, % of control 33.4; viability (ATP), % of control 65.4.
